# Reference: US4202891A, “15-Oxygenated sterol compounds and the use of such compounds to inhibit the biosynthesis of sterols” (priority 1977, dated 1980)
# System: serum sterols other than cholesterol
# Assay: Gas-liquid chromatographic analysis of serum sterols of treated rats
# Type: in vivo, rat (male, Sprague-Dawley)
# Settings: 5 mg s.c. once a day; after 12 days; no detectable accumulation
row,SMILES,accumulation of sterols other than cholesterol in serum [%]
1,CCCCCCCCCCCCCCCC(=O)O[C@H]1CC[C@@]2(C)[C@@H](CCC3=C4C(=O)C[C@H]([C@H](C)CCCC(C)C)[C@@]4(C)CC[C@@H]32)C1 [3β-hexadecanoyloxy-5α-cholest-8(14)-en-15-one],< 1
2,CC(C)CCC[C@@H](C)[C@H]1CC(=O)C2=C3CC[C@H]4C[C@@H](OC(=O)CCC(=O)O)CC[C@]4(C)[C@H]3CC[C@@]21C [3β-hemisuccinoyloxy-5α-cholest-8(14)-en-15-one],< 1
